Measurements reported in publication PMC12040169 (PLOS Biology, 2025).
This is one part of the list.

The compounds below were run on T1, CTL2-GFP (C. trachomatis L2/434/Bu, GFP-expressing). Details: bulk GFP, single well; 28.5 h, 10 µM; inhibitor.
T1 construct: L2/434/Bu, GFP-expressing
Design: species or system HeLa; Intracellular C. trachomatis growth in HeLa cells, bulk GFP fluorescence relative to DMSO
For FC(F)(F)c1ccc(-c2c[nH]c([C@@H]3COCCN3Cc3csnn3)n2)cc1 [CBK289318], the “% of control remaining” value was 136.066%. With O=C(NCCc1ccsc1)N1CCN(c2ccncc2)CC1 [CBK305595] the “% of control remaining” value was 111.629%. With N#C/C(=C\c1ccc(O)cc1)c1nc(-c2ccc3c(c2)OCO3)cs1 [CBK262370] the “% of control remaining” value was 100%. CCCc1[nH]n(CCc2ccccc2)c(=O)c1Cc1c(Cl)cccc1Cl [CBK112499] was tested, and the “% of control remaining” value was 90.2257%. In the case of C=CCn1cc(CN2CCc3nc(C)[nH]c(=O)c3C2)c2ccccc21 [CBK282376], the “% of control remaining” value is reported as 141.415%. With CCN(CC)CCCN1C(=O)CSC1c1ccc2c(c1)OCO2 (centres unmarked) [CBK263482C] the “% of control remaining” value was 100%. For CN1CCN(CCP(=O)(c2ccccc2)c2ccccc2)CC1 [CBK020260], the “% of control remaining” value was 100%. For O=C(NCCN1CCOCC1)C1CC2CCC1C2 (centres unmarked) [CBK026764], the “% of control remaining” value was 116.483%. CCCC/C=C/c1cn2ccnc2c(NCCc2ccccn2)n1 [CBK066275] was tested, and the “% of control remaining” value was 119.503%. CCn1c2ccccc2n2c(SCCC(=O)O)nnc12 [CBK267135] was tested, and the “% of control remaining” value was 155.735%. For COc1ccccc1C1(O)CC2CCC(C1)N2 (centres unmarked) [CBK281369], the “% of control remaining” value was 143.073%. CC[C@H]1CN(C(=O)NC(C)C)CC[C@H]1CC(=O)Nc1nccs1 [CBK288774] was tested, and the “% of control remaining” value was 108.598%. In the case of COc1ccc(C)cc1-n1ccc(C(=O)NC(C)(C)C(N)=O)n1 [CBK305789], the “% of control remaining” value is reported as 178.999%. With Clc1ccc(-c2csc3ncnc(SCc4ccco4)c23)cc1 [CBK265972] the “% of control remaining” value was 139.072%. CCCC(=O)c1ccc(S(=O)(=O)N2CCCN(Cc3ccc(F)cc3Cl)CC2)cc1 [CBK062917] was tested, and the “% of control remaining” value was 109.451%. In the case of Clc1cccc(-c2cncc(NCc3ccc4c(c3)OCO4)n2)c1 [CBK065323], the “% of control remaining” value is reported as 102.17%. With CCOC(=O)c1csc(C2CCCN2C(=O)c2ccoc2C)n1 (centres unmarked) [CBK304080] the “% of control remaining” value was 120.139%. In the case of COc1cccc(Nc2c(C(=O)N3CCCCC3)cnc3nc(C)ccc23)c1 [CBK287817], the “% of control remaining” value is reported as 90.7283%. With Oc1ccc2cc(-c3cccc(C(F)(F)F)c3)cnc2n1 [CBK081285] the “% of control remaining” value was 67.2038%. O=C(c1ccccc1-c1ccccc1)N1CCn2cnnc2C1 [CBK283789] was tested, and the “% of control remaining” value was 134.726%. With CCN1CCN(c2c(Cl)cccc2NC(=O)c2ccc(N3CCOCC3)c([N+](=O)[O-])c2)CC1 [CBK269066] the “% of control remaining” value was 99.2316%. With CCC(C)c1ccc(NC(=S)NCCn2cc(Cl)cn2)cc1 (centres unmarked) [CBK267101] the “% of control remaining” value was 97.0389%. In the case of COc1ccccc1CNCCNC(=O)OC(C)(C)C [CBK056694], the “% of control remaining” value is reported as 82.7754%.
